Assay results as given in patent US7705035B2, “Indoline amide derivatives as EP4 receptor ligands” (Merck Frosst Canada Ltd., priority 2006, dated 2010).
Some of these results come from one statement about several compounds together.

Sequences of proteins named here, by UniProt entry; tags and fusion partners are left off. A change or cut given only in a name is not applied to a line headed by its entry.
UniProt P35408: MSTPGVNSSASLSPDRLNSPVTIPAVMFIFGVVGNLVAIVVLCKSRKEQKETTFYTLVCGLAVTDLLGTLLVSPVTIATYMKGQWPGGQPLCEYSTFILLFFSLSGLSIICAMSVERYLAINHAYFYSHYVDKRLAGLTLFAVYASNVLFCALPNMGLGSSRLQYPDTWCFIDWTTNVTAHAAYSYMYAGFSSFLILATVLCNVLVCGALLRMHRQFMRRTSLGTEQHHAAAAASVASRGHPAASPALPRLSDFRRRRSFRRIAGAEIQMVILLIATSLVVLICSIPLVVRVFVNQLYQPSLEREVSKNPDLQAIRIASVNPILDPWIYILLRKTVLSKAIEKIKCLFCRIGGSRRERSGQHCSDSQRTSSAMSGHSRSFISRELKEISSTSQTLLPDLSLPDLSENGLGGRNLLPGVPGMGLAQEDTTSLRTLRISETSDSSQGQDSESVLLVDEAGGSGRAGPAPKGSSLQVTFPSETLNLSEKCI

Biological target: T1, EP4 receptor (Homo sapiens, UniProt P35408)
T1 construct: expressed in transfected cells; membranes prepared by differential centrifugation
Experiment: Prostanoid receptor binding assay (EP4)
Settings: radioligand binding, membranes of transfected HEK 293(ebna) cells, 10 mM MES/KOH pH 6.0

Ki, < 500 nM:
C[C@H](NC(=O)c1cccc2c1N(Cc1cccc(C#N)c1)CC2)c1ccc(C(=O)O)cc1 [Example 3, 4-[(1S)-1-({[1-(3-cyanobenzyl)-2,3-dihydro-1H-indol-7-yl]carbonyl}amino)ethyl]benzoic acid]
C[C@H](NC(=O)c1cccc2c1N(Cc1ccc(I)c(Cl)c1)CC2)c1ccc(C(=O)O)cc1 [Example 5, 4-[(1S)-1-({[1-(3-chloro-4-iodobenzyl)-2,3-dihydro-1H-indol-7-yl]carbonyl}amino)ethyl]benzoic acid]
C[C@H](NC(=O)c1cccc2c1N(Cc1ccc(I)cc1)CC2)c1ccc(C(=O)O)cc1 [Example 6, 4-[(1S)-1-({[1-(4-iodobenzyl)-2,3-dihydro-1H-indol-7-yl]carbonyl}amino)ethyl]benzoic acid]
C[C@H](NC(=O)c1cccc2c1N(Cc1cccc(C(N)=O)c1)CC2)c1ccc(C(=O)O)cc1 [Example 8, 4-{(1S)-1-[({1-[3-(aminocarbonyl)benzyl]-2,3-dihydro-1H-indol-7-yl}carbonyl)amino]ethyl}benzoic acid]
C[C@H](NC(=O)c1cccc2c1N(Cc1ccc(Cl)c(Cl)c1)CC2)c1ccc(C(=O)O)cc1 [Example 9, 4-[(1S)-1-({[1-(3,4-dichlorobenzyl)-2,3-dihydro-1H-indol-7-yl]carbonyl}amino)ethyl]benzoic acid]
C[C@H](NC(=O)c1cccc2c1N(Cc1ccc(-c3ccccc3)cc1)CC2)c1ccc(C(=O)O)cc1 [Example 11, 4-[(1S)-1-({[1-(biphenyl-4-ylmethyl)-2,3-dihydro-1H-indol-7-yl]carbonyl}amino)ethyl]benzoic acid]
C[C@H](NC(=O)c1cccc2c1N(Cc1ccc(Br)cc1)CC2)c1ccc(C(=O)O)cc1 [Example 12, 4-[(1S)-1-({[1-(4-bromobenzyl)-2,3-dihydro-1H-indol-7-yl]carbonyl}amino)ethyl]benzoic acid]
C[C@H](NC(=O)c1cccc2c1N(Cc1ccc(C(N)=O)cc1)CC2)c1ccc(C(=O)O)cc1 [Example 13]
C[C@H](NC(=O)c1cccc2c1N(Cc1cc(Cl)ccc1Cl)CC2)c1ccc(C(=O)O)cc1 [Example 15, 4-[(1S)-1-({[1-(2,5-dichlorobenzyl)-2,3-dihydro-1H-indol-7-yl]carbonyl}amino)ethyl]benzoic acid]
O=C(O)c1ccc(C2(NC(=O)c3cccc4c3N(Cc3ccc(Cl)c(Cl)c3)CC4)CC2)cc1 [Example 16, 4-[1-({[1-(3,4-dichlorobenzyl)-2,3-dihydro-1H-indol-7-yl]carbonyl}amino)cyclopropyl] benzoic acid]
C[C@H](NC(=O)c1cccc2c1N(Cc1ccc3ccccc3c1)CC2)c1ccc(C(=O)O)cc1 [Example 17, 4-[(1S)-1-({[1-(2-naphthylmethyl)-2,3-dihydro-1H-indol-7-yl]carbonyl}amino)ethyl]benzoic acid]
C[C@H](NC(=O)c1cc(Cl)cc2c1N(Cc1ccc(Cl)cc1)CC2)c1ccc(C(=O)O)cc1 [Example 22, 4-{(1S)-1-[({5-chloro-1-[4-(chloro)benzyl]-2,3-dihydro-1H-indol-7-yl}carbonyl)amino]ethyl}benzoic acid]
